Data source: PubChem BioAssay AID602196 (INSERM, 2012)

Purpose: 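Knock-downs that protect lung cancer cells from cisplatin or sensitise them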
Cells: human A549 lung cancer cells
Reagents: siRNA pair against human genes
Duration: 48 h transfection before cisplatin; time from cisplatin to read-out not stated
Conditions: cisplatin at a dose killing half of control-siRNA cells; exact dose and duration not given
Detection: 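Cisplatin cell death as a shift from the 50% death seen with control siRNA; siRNAs toxic or growth-blocking alone scored 0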
Reading the numbers: two-siRNA summed score (-2 to +2): higher = both siRNAs protect from cisplatin killing; -2 means both sensitise; mean protection from cisplatin (shift in death): higher = protection from cisplatin killing
Call rule: 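Each siRNA scores 0 if harmful alone by LDH or WST-1, otherwise +1 if it reduces and -1 if it increases cisplatin killing; a gene is active when both siRNAs agree (sum +2 or -2)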
Calls: active = both siRNAs shift cisplatin killing the same way; inactive = no consistent shift, or siRNA harmful alone
In all, the deposit lists about 23,000 reagents; below is a part drawn at random. Over the whole deposit, 455 (2%) are marked active. 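Active includes both protection and sensitisation; some change values fall well beyond the stated -50 to +50 range.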 The numbers tell different reagents against one gene apart. Further read-outs or replicates are left out here. Reagent sequences are not shown. Not given: the amount of reagent.

Depletion of PIGB came out at: two-siRNA summed score (-2 to +2) = 0; mean protection from cisplatin (shift in death) (%) = 7.5; inactive. CCDC185 scored two-siRNA summed score (-2 to +2) = 0; mean protection from cisplatin (shift in death) (%) = 6.6; inactive. Depletion of C10orf67 #1 resulted in: two-siRNA summed score (-2 to +2) = -1; mean protection from cisplatin (shift in death) (%) = -9.8; inactive. C10orf67 #2 scored two-siRNA summed score (-2 to +2) = 1; mean protection from cisplatin (shift in death) (%) = 12.5; inactive. With knock-down of ZNF839, the record shows two-siRNA summed score (-2 to +2) = 0; mean protection from cisplatin (shift in death) (%) = 1.3; inactive. With knock-down of COQ2, the record shows two-siRNA summed score (-2 to +2) = 0; mean protection from cisplatin (shift in death) (%) = 5.4; inactive.

After knock-down of TRIP12 the results were two-siRNA summed score (-2 to +2) = 0; mean protection from cisplatin (shift in death) (%) = 11; inactive. After knock-down of C20orf204, the screen gave two-siRNA summed score (-2 to +2) = 0; mean protection from cisplatin (shift in death) (%) = 22.5; inactive.

2 neighbouring reagents already listed:
COQ2 | two-siRNA summed score (-2 to +2) = 0; mean protection from cisplatin (shift in death) (%) = 5.4; activity call = inactive
TRIP12 | two-siRNA summed score (-2 to +2) = 0; mean protection from cisplatin (shift in death) (%) = 11; activity call = inactive

Further reagents follow.
Knock-down of BMP5 resulted in: two-siRNA summed score (-2 to +2) = 0; mean protection from cisplatin (shift in death) (%) = 3.6; inactive. Depletion of ME1 gave: two-siRNA summed score (-2 to +2) = 0; mean protection from cisplatin (shift in death) (%) = -19.4; inactive. Knock-down of TTC21B resulted in: two-siRNA summed score (-2 to +2) = 0; mean protection from cisplatin (shift in death) (%) = -2.7; inactive. For LOC441027, the values are two-siRNA summed score (-2 to +2) = 0; mean protection from cisplatin (shift in death) (%) = 10.5; inactive.
